## Primary screen of a compound library

Source: ChEMBL document CHEMBL3988442, “University of Dundee, Small-Polar-MMV Screening Library” (2021).

Mtb growth Cornell: 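Whole-cell assay for inhibitors of Mycobacterium tuberculosis growth, labelled Cornell in the record; the read-out is not stated. The concentration is filed as 10 mM, unlikely as a test dose, so the dose is not known. Higher means stronger inhibition (inferred from two other growth screens of the library). Size under these conditions: about 53,000 compounds, about 900 of them at 50% or above in at least one test.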
Mtb heat-shock: 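Assay on Mycobacterium tuberculosis, filed only as a heat shock assay from Cornell; the read-out is not stated. The concentration is filed as 10 mM, unlikely as a test dose, so the dose is not known. Higher reads as stronger inhibition (inferred: compounds with an IC50 in retests scored well above the rest). Of about 69,000 compounds tested this way, about 930 (1.4%) reached 50% or more in at least one test.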

Each number is a percent effect as filed.
How 0% and 100% were set is not recorded. Most values in the screen are low, and negative values occur.
Compounds were drawn at random from those tested, without regard to their results.
A dash means the value is not listed here; it may have been measured.

| SMILES | Mtb growth Cornell | Mtb heat-shock |
|---|---|---|
| `Cc1ccc(NC(=O)NC(C)c2nc[nH]n2)cc1Cl` (configuration not stated) | - | 6.823 |
| `CC(C)n1ccnc1C1CCN(c2nccc(C(F)(F)F)n2)CC1` | -0.247 | -3.226 |
| `O=C(O)C(F)(F)F.O=C(c1cccnc1)N1CCC2(CCN(C(=O)c3ccco3)CC2)C1` | -3.888 | 23.94 |
| `Cc1ccccc1C(C)NC(=O)CN1CCN(Cc2cccs2)CC1` (configuration not stated) | -22.61 | -4.758 |
| `COCCc1noc(CN2CC(n3nc(C)cc3C)C2)n1` | - | -8.693 |
| `COCCN(Cc1sccc1C)C(=O)C1CCN(C(C)C)CC1` | 7.438 | 14.48 |
| `OC(COc1ccccc1Br)COC1CCOCC1` (configuration not stated) | 10.03 | 10.68 |
| `CC1CCN(C)c2ccccc2N1C(=O)c1ccc(=O)n(C)c1` (configuration not stated) | 18.81 | 15.94 |
| `Cc1cnn(CC2CCCN2C(=O)c2ccc3nnc(C)n3c2)c1` (configuration not stated) | 107.3 | 8.845 |
| `COC(=O)[C@H]1CN(C(=O)NC(C)C)CCN1C(=O)c1cccs1` | - | -15.19 |
| `CC1(CNS(=O)(=O)c2cccc(C(=O)N3CCSCC3)c2)COC1` | 3.443 | 17.72 |
| `CC(C)(C)c1n[nH]c(C2CN(Cc3nnc(C4CCC4)o3)CCO2)n1` (configuration not stated) | - | -6.104 |
| `CN1CCCC(Cc2cc(N(C)C)ncn2)C1` (configuration not stated) | 6.433 | 11.24 |
| `Cc1nonc1C1CCCN1C(=O)c1cc2n(n1)CCCN(C(C)C)C2` (configuration not stated) | -31.15 | 4.485 |
| `Cc1nc2cc(OCc3nc(C(=O)NC(C)(CO)CO)co3)ccc2s1` | 14.17 | 1.67 |
| `CC(=O)N1CCc2ncc(CNC(=O)C3CCC3)n2CC1` | - | -19.11 |
| `Cc1cc(C)n(CNc2nonc2C(N)=O)n1` | -67.06 | -34.25 |
| `COC(=O)c1cnc2c(c(C)nn2C)c1OC` | -16.01 | 27.52 |
| `Cc1ccc(-c2noc(CN3CCOC(Cn4cncn4)C3)n2)cc1` (configuration not stated) | 7.395 | 10.9 |
| `CCOC1Sc2nnc(C)n2N=C1c1ccc(F)cc1` (configuration not stated) | 27.03 | 24.76 |
| `CCc1nc(CCNc2ncccc2S(N)(=O)=O)sc1C` | - | -187.6 |
| `[H][C@]12CCN[C@@]1([H])CN(C(=O)CCc1ccccc1)C2` | 5.425 | 7.627 |
| `O=C(CN1CCCC1c1noc(C2CC2)n1)N1CCc2ccccc21` (configuration not stated) | - | 6.106 |
| `CCC1CN(c2nnc(C)c(C)c2C#N)CCO1` (configuration not stated) | - | 8.639 |
| `CCc1noc(CNc2cc3c(cc2Cl)OCCO3)n1` | - | -9.019 |
| `COCCN1CCOCC2(C1)CN(C(=O)c1conc1C)CCO2.O=C(O)C(F)(F)F` (configuration not stated) | -0.02004 | 15.5 |
| `COCCN1CCC(CNC(=O)C2(c3ccccc3)CCOCC2)C1` (configuration not stated) | -0.3833 | 1.348 |
| `CS(=O)(=O)CCC(=O)Nc1nccn1Cc1ccccc1Cl` | 15.07 | 51.39 |
| `CCO[C@@H]1CCN(C(=O)c2cnc(C)cn2)[C@@H]1Cc1cnn(C)c1` | -13.27 | 3.882 |
| `Clc1ccccc1C1(c2ccnc(CC3CC3)n2)CCNCC1` | -30.02 | 9.685 |
| `CCCSc1nc(O)c(CC)c(=O)n1-c1ccccc1` | 98.89 | -1.265 |
| `COCCN1CCOCC12CCN(Cc1ccn(C)n1)CC2.O=C(O)C(F)(F)F.O=C(O)C(F)(F)F` | -1.713 | -21.14 |
| `Cc1ccsc1C(=O)NCc1ccnc(C2CCCOC2)n1` (configuration not stated) | -36.16 | -18.29 |
| `COc1ccc(CN2CCC3(CC2)CCN(CC(=O)N(C)C)C3=O)cc1.O=C(O)C(F)(F)F` | 34.53 | 1.282 |
| `Cc1cc(CN(C)CCC(O)c2ccccc2)no1` (configuration not stated) | -13.37 | 50.59 |
| `COc1ccc(C2CN(c3nc(C)cc(C)n3)CCN2C(C)=O)cc1` (configuration not stated) | 37.66 | -2.831 |
| `CC(C)c1sc(Cl)nc1C(=O)N1CCN(Cc2ccccc2)CC1` | 1.233 | -28.91 |
| `Cc1n[nH]c(C2CN(C(=O)c3ccc(Cl)o3)CCO2)n1` (configuration not stated) | 14.56 | -30.13 |
| `COCCCn1ccc(NC2CCOCC2)n1` | -11.88 | -6.17 |
| `Cc1csc(CCNC(=O)C2CCOC2)n1` (configuration not stated) | -18.58 | 5.551 |
| `NC(=O)CN1CCCN(C(=O)Cc2ccc3c(c2)OCO3)CC1` | - | -1.461 |
| `COC(=O)CCSc1nncn1-c1ccc(OC)nc1` | -51.08 | -28.86 |
| `OCC1(O)CCN(c2ncccc2C(F)(F)F)CC1` | 11.9 | 4.45 |
| `CCc1nccn1CCC(=O)N1CCCC1c1ccc(F)cc1` (configuration not stated) | 1.229 | 8.073 |
| `COCc1nnc(NC(=O)CN2C(=O)c3ccccc3NC2C(C)C)s1` (configuration not stated) | 19.98 | 1.661 |
| `Cc1cncc(C(=O)N2CCc3ncc(Cn4cccn4)n3CC2)c1` | -10.28 | -14.97 |
| `COc1ccc2c3c1CN(C(=O)N(C)C)CC3=CC(C)(C)CO2` | 89.58 | 9.875 |
| `CN1C(=O)C2(CCN(CCO)C2)c2ccccc21` (configuration not stated) | 5.829 | 2.625 |
| `Fc1ccc(-c2nc(CN3CCCCC3Cn3cncn3)co2)cc1` (configuration not stated) | - | -0.9211 |
| `CS(=O)(=O)N1CCOCC2(CCN(C(=O)c3cnccn3)CC2)C1` | -36.48 | 45.36 |
| `Cn1cccc(NC(=O)NCc2cccc(CO)c2)c1=O` | 30.08 | 2.353 |
| `CC(C)c1noc(CN(Cc2ccc(F)cc2)C2CC2)n1` | -14.54 | 8.996 |
| `Cc1noc(C(C)N2CCc3[nH]c4ccc(Cl)cc4c3C2)n1` (configuration not stated) | 63.72 | -2.718 |
| `CC(C)(C)CN1CCC[C@H]1c1nc(-c2cncnc2N)no1` | 2.983 | -19.57 |
| `[H][C@@]12C[C@H](C(=O)NCc3ccco3)CN(S(=O)(=O)C3CC3)[C@]1([H])CCO2` | -5.241 | 29.11 |
| `O=C(NCCCO)c1nnsc1-c1ccccc1` | -6.814 | 5.817 |
| `CN(C(=O)c1ccc2c(c1)nc(N1CC[C@H](O)C1)n2C)C1CCSCC1` | - | -3.606 |
| `CC(C)CN1C(=O)C2(CCCC2)NC12CCSCC2` | -8.324 | -13.12 |
| `Cc1ccnn1-c1ccc(C(=O)N2CCN(c3cnccn3)CC2)cc1` | -34.28 | -11.27 |
| `CCCn1cc(NC2CCSCC2)cn1` | 17.17 | 10.65 |
| `CCOCC1CN(CC2CC2)Cc2cnn(C)c21` (configuration not stated) | 25.91 | 3.104 |
| `CS(=O)(=O)N1CCC2(CCCN(Cc3ccccn3)C2)C1.O=C(O)C(F)(F)F.O=C(O)C(F)(F)F` (configuration not stated) | -7.184 | -42.25 |
| `Cn1ccnc1CN1CCCN(C(=O)COC2CCCCC2)CC1` | -16.82 | -9.672 |
| `COc1ccc(-n2cnnc2CC2CCNCC2)cc1` | 17.59 | 7.122 |
| `CC(C)(C)NC(=O)CNC(=O)c1cccnc1Oc1cccnc1` | 6.917 | -6.636 |
| `CC(C)NC(=O)COc1cccc(-c2nc(C(C)C)no2)c1` | - | -10.94 |
| `O=C(Cc1ccccc1Br)NCC(=O)Nc1cn[nH]c1` | -10.34 | -28.33 |
| `Cc1cccnc1CC(C)N(C)C(=O)c1ccoc1C` (configuration not stated) | - | -30.91 |
| `Cc1noc(C)c1CN1CCc2ncc(CN(C)C)n2CC1.O=C(O)C(F)(F)F.O=C(O)C(F)(F)F` | 0.9693 | -9.434 |

Some entries from above, unchanged:

| SMILES | Mtb growth Cornell | Mtb heat-shock |
|---|---|---|
| `CCc1nccn1CCC(=O)N1CCCC1c1ccc(F)cc1` (configuration not stated) | 1.229 | 8.073 |
| `CCc1noc(CNc2cc3c(cc2Cl)OCCO3)n1` | - | -9.019 |
| `Cc1cc(CN(C)CCC(O)c2ccccc2)no1` (configuration not stated) | -13.37 | 50.59 |
| `Cn1ccnc1CN1CCCN(C(=O)COC2CCCCC2)CC1` | -16.82 | -9.672 |
| `COCCN(Cc1sccc1C)C(=O)C1CCN(C(C)C)CC1` | 7.438 | 14.48 |